Assay results as given in PubChem BioAssay AID504467 (National Center for Advancing Translational Sciences (NCATS), 2011).
Screen size: about 330,000 compounds; about 7,700 (2.3%) were called active. The inconclusive results got no clear call from the source; some entries with a clear call stand among them for comparison. Calls come from the whole dose curve; as a rule, active = well fitted inhibition curve with a large enough effect; inconclusive = small, poorly fitted or top-dose-only effect, or effect the other way; inactive = flat fitted curve, though single readings scatter. Potencies of inconclusive entries are doubtful fits and often do not repeat.

Test: qHTS screen for small molecules that inhibit ELG1-dependent DNA repair in human embryonic kidney (HEK293T) cells expressing luciferase-tagged ELG1; note: nearly all actives have a fitted effect of over 55% in size
Settings: HEK293T ELG1-luciferase reporter, luminescence, 16 h, DNA damage induced by 5-fluorouridine; activity change, negative = inhibition: at 46.1 µM (top of the series)
Summary of the method: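 Luminescence from the luciferase reporter, measured 30 min after ONE-Glo reagent at room temperature, was the read-out. Beforehand, 2,000 cells per well were exposed for 16 hr at 37 °C to 5-fluorouridine together with compound or vehicle.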
% is set by controls: 0 for no effect and ±100 for the full control effect; potency is the fitted concentration of half-maximal effect.

| SMILES | Potency | activity change, negative = inhibition |
| --- | --- | --- |
| CCN(CC)S(=O)(=O)c1ccc(C(=O)Nc2cc(S(=O)(=O)N3CCOCC3)ccc2O)cc1 | inactive |  |
| CCC1=C(OC(=O)N(CC)CC)N2C(=O)OC(=NCC3CC3)[C@]2(C)[C@H]2C1=CC[C@H]1C(=O)NC(=O)[C@H]12 | inconclusive: 29.1 µM [activator, single point] |  |
| Cc1cc(SCC(=O)Nc2cccnc2Cl)nc2ccccc12 | inconclusive: 29.1 µM [inhibitor, single point] |  |
| Cc1ccc(N2C(=O)c3ccccc3C2=O)cc1 | inconclusive: 20.6 µM [activator, single point] |  |
| CC1CCN(c2nc3c(c(=O)n(C)c(=O)n3C)n2CCSc2nc3ccccc3s2)CC1 | active: 23.1 µM |  |
| O=C(Cc1ccc(F)cc1)Nc1cccc(S(=O)(=O)N2CCCC2)c1 | inconclusive: 20.6 µM [inhibitor, single point] |  |
| CCc1ccc2nc(N)sc2c1 | inconclusive: 20.6 µM [activator, partial curve] |  |
| O=C(CCn1c2c(c3ccccc31)CCCC2)NNC(=O)c1ccccc1C(=O)O | inconclusive: 4.11 µM [inhibitor, single point] |  |
| CCNc1sc(C(=O)c2cccs2)c(N)c1-c1nc2ccccc2s1 | inconclusive: 29.1 µM [inhibitor, single point] |  |
| O=C(Nc1nc2ccsc2c(=O)s1)c1ccc(F)cc1Cl | inconclusive: 4.11 µM [activator, full curve] |  |
| O=C(Nc1cc(S(=O)(=O)N2CCCCC2)ccc1Cl)c1ccccc1NS(=O)(=O)c1ccc(F)cc1 | active: 4.11 µM |  |
| Cc1cccc(C(=O)N2CCC(=O)N(C(COCc3cccc(C(F)(F)F)c3)Cc3ccccc3)CC2)c1 (stereo not given) | inconclusive: 16.4 µM [inhibitor, single point] |  |
| Cc1ccc(NC(=O)c2nc[nH]c2C(=O)NCCCCCCNC(=O)c2[nH]cnc2C(=O)Nc2ccc(C)cc2)cc1 | inconclusive: 4.61 µM [inhibitor, single point] |  |
| O=C(N/N=C/c1cc([N+](=O)[O-])ccc1O)c1ccc(COc2ccc3c(c2)CCC3)o1 | active: 6.51 µM |  |
| CC1CC(C)CN(C(=O)CSc2n[nH]c(N)n2)C1 (stereo not given) | inconclusive: 10.3 µM [activator, partial curve, poor fit] |  |
| CCCN(CCC)S(=O)(=O)c1ccc(C(=O)Nc2nc3c(s2)CCc2ccccc2-3)cc1 | inconclusive: 14.6 µM [activator, single point] |  |
| COc1cc(OC)c2ccc(=O)oc2c1C(CC(=O)N1CCCC1)c1ccc2c(c1)OCO2 (stereo not given) | inactive |  |
| CCOC(=O)N1CCC(Nc2c(Nc3ccc(F)cc3)c(=O)c2=O)CC1 | inactive |  |
| CCCCc1nc(S(=O)(=O)c2ccc(Cl)cc2)c(N2CCOCC2)o1 | inconclusive: 13 µM [activator, partial curve] |  |
| COc1cccc(-c2nnc(-c3ccc(C(F)(F)F)cc3)o2)c1 | inconclusive: 20.6 µM [activator, partial curve] |  |
| Cc1cc(NC(=O)CCCn2cc([N+](=O)[O-])cn2)n(Cc2ccc(F)cc2)n1 | inactive |  |
| Cc1cccc(/N=C/c2nc(-c3ccccc3Br)oc2O)n1 | inactive |  |
| CCOC(OCC)c1ccc(/C=C\c2nccc(N)n2)cc1 | inconclusive: 14.6 µM [activator, partial curve] |  |
| c1ccc2sc(N3CCN(Cc4nnnn4CC4CCCO4)CC3)nc2c1 (stereo not given) | inconclusive: 4.61 µM [inhibitor, full curve] |  |

| SMILES | Potency | activity change, negative = inhibition |
| --- | --- | --- |
| CCOc1ccccc1NC(=O)C(OC(=O)C1CC1)c1ccccc1 (stereo not given) | inactive |  |
| Cc1cc(C)nc(NS(=O)(=O)c2ccc(NC(=O)c3cc(=O)c4ccccc4o3)cc2)n1 | inactive |  |
| NS(=O)(=O)c1ccc(NC(=O)CCC(=O)c2ccc(Cl)s2)cc1 | inconclusive: 16.4 µM [activator, partial curve, poor fit] |  |
| COc1ccc(-n2c(C)cc(/C=C3\C(=N)N4N=C(CC(=O)N5CCOCC5)SC4=NC3=O)c2C)cc1 | inactive |  |
| COc1cccc(/C=C/C(=O)OCC(=O)c2c[nH]c3ccccc23)c1OC | active: 16.4 µM |  |
| O=C(Nc1cccnc1)c1ccc(Cl)c(S(=O)(=O)N2CCCCC2)c1 |  | inconclusive: 40.7% [activator] |
| CCCCOc1ccc(CSc2n[nH]c(C)n2)cc1 | inconclusive: 18.4 µM [activator, partial curve] |  |
| Cc1csc(Nc2ccc(C(=O)O)cc2)n1 | inconclusive: 23.1 µM [activator, partial curve, poor fit] |  |
| Oc1ccccc1C1NN=C(c2ccccc2)S1 (stereo not given) | inconclusive: 1.64 µM [activator, full curve] |  |
| Cc1ccnc(NC(=O)c2ccc(Cl)cc2Cl)n1 | inconclusive: 32.6 µM [activator, partial curve, poor fit] |  |
| COc1cccc(C(=O)Nc2ccc3c(c2)n(C)c(=O)n3C)c1 | inconclusive: 18.3 µM [activator, partial curve] |  |
| CC(=O)Nc1ccc(S(=O)(=O)NCC(=O)OCC(=O)N2CC(C)OC(C)C2)cc1 (stereo not given) | inconclusive: 9.2 µM [activator, partial curve, poor fit] |  |
| O=C(N/N=C\c1cc(Br)cs1)C1COc2ccccc2O1 (stereo not given) | inconclusive: 8.2 µM [inhibitor, partial curve] |  |
| Cc1cccc2cc(C#N)c(NCCCNS(=O)(=O)c3ccc(Cl)cc3)nc12 | inconclusive: 20.6 µM [inhibitor, single point] |  |
| COc1ccc(CCC(=O)NCc2ccccc2OC)cc1 | inactive |  |
| CCOC(=O)c1c(N)sc(C(=O)Nc2ccccc2F)c1C | inconclusive: 3.66 µM [activator, full curve] |  |
| CCCCN(C)C(=O)c1cc2cc3ccc(OC)cc3nc2s1 | inconclusive: 2.31 µM [activator, partial curve] |  |
| CCOP(=O)(OCC)C(NC(=O)NS(=O)(=O)c1ccc(C)cc1)c1ccccc1 (stereo not given) | inactive |  |
| O=C(CSc1nc2ccccc2o1)Nc1ccc(N2CCOCC2)c(Cl)c1 | inconclusive: 3.26 µM [activator, full curve] |  |
| O=C(Nc1ncc(Cc2ccccc2Cl)s1)C1=NCCN1 | inactive |  |
| COc1cc(/C=N/NC(=O)c2c(C)nc3ccc(Cl)cn23)cc(OC)c1OC | inconclusive: 5.8 µM [inhibitor, partial curve] |  |
| CCC(C(N)=NCCc1ccc(OC)c(OC)c1)c1ccccc1 (stereo not given) | inconclusive: 9.2 µM [inhibitor, partial curve, poor fit] |  |
| Cc1ccccc1C(=O)NCCSc1ccccc1 | inconclusive: 8.2 µM [activator, partial curve] |  |
| O=C(/C=C/c1ccccc1)c1ccc2c(c1)OCCCCO2 | inconclusive: 16.4 µM [activator, partial curve] |  |

Individual results from the list:
Potency with Oc1ccccc1C1NN=C(c2ccccc2)S1 (stereo not given) reads inconclusive: 1.64 µM [activator, full curve]
Potency with O=C(N/N=C/c1cc([N+](=O)[O-])ccc1O)c1ccc(COc2ccc3c(c2)CCC3)o1 reads active: 6.51 µM

Following part:

| SMILES | Potency | activity change, negative = inhibition |
| --- | --- | --- |
| CCOc1ccc(NC(=O)Nc2ccc3c(c2)N(C)C(=O)CS3)cc1 | inconclusive: 23.1 µM [inhibitor, partial curve, poor fit] |  |
| Cc1ccc(NC(=S)c2nc3ccccc3[nH]2)c(C)c1 | inconclusive: 1.03 µM [activator, full curve] |  |
| O=[N+]([O-])c1ncccc1OCc1ccc(-c2ccccc2)cc1 | inactive |  |
| O=C(NNC(=O)C12CC3CC(CC(C3)C1)C2)c1csc(N2CCOCC2)n1 | inconclusive: 0.231 µM [inhibitor, single point] |  |
| Cc1ccoc1C(=O)Nc1ccc(CC(=O)O)cc1 | inconclusive: 5.8 µM [activator, partial curve] |  |
| COc1ccc(C(C#N)(CC(=O)O)c2cnccn2)cc1OC (stereo not given) | inconclusive: 35.5 µM [activator, single point] |  |
| CCOc1ccccc1CNC(=O)C1CCN(C(=O)c2sccc2-n2cccc2)CC1 | active: 13 µM |  |
| O=C(c1cccs1)n1nc(NCc2ccccc2)nc1NCc1ccccc1 | active: 25.9 µM |  |
| CN(C)C(=O)COc1ccc(S(=O)(=O)c2ccc(OCC(=O)N(C)C)cc2)cc1 | inactive |  |
| Cc1ccc2c(c1)c1c3n2CCCN(Cc2ccccc2)C3CCC1 (stereo not given) | inactive |  |
| S=C(NCCCN1CCOCC1)Nc1ccc(-c2nc3ccccc3[nH]2)cc1 | inconclusive: 1.83 µM [activator, partial curve, poor fit] |  |
| CCNS(=O)(=O)c1ccc(CCC(=O)Nc2ccccc2)cc1 | inactive |  |
| Cc1ccc(-n2ccc(=O)c(C(=O)O)n2)cc1 | inconclusive: 14.6 µM [activator, partial curve, poor fit] |  |
| COc1ccc(S(=O)(=O)N2CCC3(CC2)OCCN3S(=O)(=O)c2ccc(C)cc2)cc1OC | inconclusive: 2.59 µM [activator, single point] |  |
| COc1ccc(C(C(=O)NC2CCCC2)N(C(=O)c2ccco2)c2ccccc2OC)cc1 (stereo not given) | inactive |  |
| COc1cc2c(cc1OC)C(COc1ccc3c(C)cc(=O)oc3c1)N(C(=O)c1ccco1)CC2 (stereo not given) | active: 2.31 µM |  |
| CNCC(O)COc1ccccc1 (stereo not given) | inactive |  |
| Cc1ccc(-c2nnc(N3CCN(c4ccccn4)CC3)c3ccccc23)cc1 | active: 16.4 µM |  |
| O=C1N=c2ccccc2=C1c1sc(=S)n(NC(=O)c2ccccc2)c1O | inactive |  |
| CC(=O)Nc1ccc(Nc2nc(C(F)(F)F)nc3c2nnn3Cc2ccccc2Cl)cc1 | inconclusive: 23.1 µM [inhibitor, partial curve] |  |
| Cc1ccc(C)c(N2CCN(C(=O)c3ccc(N4CCCC4=O)cc3)CC2)c1 | inconclusive: 16.4 µM [inhibitor, partial curve] |  |
| CCOc1cc(/C=N/NC(=O)Cc2ccc(C(F)(F)F)cc2[N+](=O)[O-])ccc1O | inactive |  |
